# The supplement of paper PMC8728848
# The list shows a part of the results.
# B1: SRS6 (Toxoplasma gondii), Q9NH12 (protein)
# chain: MARTGSMQQRRGGFQTTARMLMAVCVSGVLLLSSGPSSANKLTEGQQNQNSGPGAATQEGPTIEGAVAKCVLKTTAAENGSSRAKNTTGLTLSKENLVVSLQCSGEKNAIVPKDQKKVCSAAPNAKVADCKGADTDKQVTLKSLLGTSGDIQWEKTIVSTDNKGEVMTLKIKESELPLFDKAFFVGCEEDKAQTRTSQATECKVNVSVKARPSTVGENNVVTCAYGKDSNPRPLEVEMSADNDTLTIDCGTDGSLKPTKYTEEFCVTDNSQLESCTTKKFSEILPTFLPSWWVSDSQNGSAKLTIPESGFPEEQQQFRLGCVPKKTTQSPQANPSVKTEKEEGAQNTDASTSNCSVIVTVKASNFSSLASSIAPTAAVAGGAAALTGFLVGSF
# Legend:
# Experiment in all cases: glycan array binding signal (z-score within array); higher = stronger binding
# Settings in all cases: glycan notation: IUPAC condensed, linker removed
# [1] = target: Fuc(a1-3)[Gal3S(b1-4)]GlcNAc
# Procedure, shortened: (§1)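 The binding signal is a Z-score computed within each array and averaged over linkers. Arrays of the same protein sequence at different concentrations or buffers were also averaged together. Data originate from 3228 arrays in the Consortium for Functional Glycomics database, kept only where the protein sequence was available.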
# [2] = target: Fuc(a1-3)[Gal3S(b1-4)]GlcNAc6S
# Procedure, shortened: as §1
# [3] = target: Fuc(a1-3)[GalNAc(b1-4)]GlcNAc
# Procedure, shortened: as §1
# Fuc(a1-4)GlcNAc = target: Fuc(a1-4)GlcNAc
# Procedure, shortened: as §1
# Fuc(b1-3)GlcNAc = target: Fuc(b1-3)GlcNAc
# Procedure, shortened: as §1
# Gal(a1-2)Gal = target: Gal(a1-2)Gal
# Procedure, shortened: as §1
# Gal(a1-3)Gal = target: Gal(a1-3)Gal
# Procedure, shortened: as §1
# Gal(a1-3)Gal(b1-3)GlcNAc = target: Gal(a1-3)Gal(b1-3)GlcNAc
# Procedure, shortened: as §1
# [4] = target: Gal(a1-3)Gal(b1-3)GlcNAc(b1-2)Man(a1-3)[Gal(a1-3)Gal(b1-3)GlcNAc(b1-2)Man(a1-6)]Man(b1-4)GlcNAc(b1-4)GlcNAc
# Procedure, shortened: as §1
# [5] = target: Gal(a1-3)Gal(b1-3)[Fuc(a1-4)]GlcNAc(b1-2)Man(a1-3)[Gal(a1-3)Gal(b1-3)[Fuc(a1-4)]GlcNAc(b1-2)Man(a1-6)]Man(b1-4)GlcNAc(b1-4)GlcNAc
# Procedure, shortened: as §1
# Gal(a1-3)Gal(b1-4)Glc = target: Gal(a1-3)Gal(b1-4)Glc
# Procedure, shortened: as §1
# Gal(a1-3)Gal(b1-4)GlcNAc = target: Gal(a1-3)Gal(b1-4)GlcNAc
# Procedure, shortened: as §1
# [6] = target: Gal(a1-3)Gal(b1-4)GlcNAc(b1-3)GalNAc
# Procedure, shortened: as §1
# [7] = target: Gal(a1-3)Gal(b1-4)[Fuc(a1-3)]GlcNAc
# Procedure, shortened: as §1
# [8] = target: Gal(a1-3)Gal(b1-4)[Fuc(a1-3)]GlcNAc(b1-2)Man(a1-3)[Gal(a1-3)Gal(b1-4)[Fuc(a1-3)]GlcNAc(b1-2)Man(a1-6)]Man(b1-4)GlcNAc(b1-4)GlcNAc
# Procedure, shortened: as §1
# Gal(a1-3)GalNAc = target: Gal(a1-3)GalNAc
# Procedure, shortened: as §1
# [9] = target: Gal(a1-3)[Gal(a1-4)]Gal(b1-4)GlcNAc
# Procedure, shortened: as §1
# [10] = target: Gal(a1-4)Gal(b1-3)GlcNAc(b1-2)Man(a1-3)[Gal(a1-4)Gal(b1-3)GlcNAc(b1-2)Man(a1-6)]Man(b1-4)GlcNAc(b1-4)GlcNAc
# Procedure, shortened: as §1
# Gal(a1-4)Gal(b1-4)Glc = target: Gal(a1-4)Gal(b1-4)Glc
# Procedure, shortened: as §1
# Gal(a1-4)Gal(b1-4)GlcNAc = target: Gal(a1-4)Gal(b1-4)GlcNAc
# Procedure, shortened: as §1
# [11] = target: Gal(a1-4)Gal(b1-4)GlcNAc(b1-2)Man(a1-3)[Gal(a1-4)Gal(b1-4)GlcNAc(b1-2)Man(a1-6)]Man(b1-4)GlcNAc(b1-4)GlcNAc
# Procedure, shortened: as §1
# [12] = target: Gal(a1-4)Gal(b1-4)GlcNAc(b1-3)Gal(b1-4)Glc
# Procedure, shortened: as §1
# Gal(a1-4)GlcNAc = target: Gal(a1-4)GlcNAc
# Procedure, shortened: as §1
# Gal(a1-6)Glc = target: Gal(a1-6)Glc
# Procedure, shortened: as §1
# Gal(b1-2)Gal = target: Gal(b1-2)Gal
# Procedure, shortened: as §1
# Gal(b1-3)Gal = target: Gal(b1-3)Gal
# Procedure, shortened: as §1
# Gal(b1-3)Gal(b1-4)GlcNAc = target: Gal(b1-3)Gal(b1-4)GlcNAc
# Procedure, shortened: as §1
# [13] = target: Gal(b1-3)Gal(b1-4)GlcNAc(b1-2)Man(a1-3)[Gal(b1-3)Gal(b1-4)GlcNAc(b1-2)Man(a1-6)]Man(b1-4)GlcNAc(b1-4)GlcNAc
# Procedure, shortened: as §1
# Gal(b1-3)GalNAc = target: Gal(b1-3)GalNAc
# Procedure, shortened: as §1
# [14] = target: Gal(b1-3)GalNAc(a1-3)[Fuc(a1-2)]Gal(b1-4)Glc
# Procedure, shortened: as §1
binder,measurement,setting,value
B1,glycan array binding signal (z-score),[1],1.04
same,glycan array binding signal (z-score),[2],0.773
same,glycan array binding signal (z-score),[3],-0.203
same,glycan array binding signal (z-score),Fuc(a1-4)GlcNAc,-0.014
same,glycan array binding signal (z-score),Fuc(b1-3)GlcNAc,0.841
same,glycan array binding signal (z-score),Gal(a1-2)Gal,-1.97
same,glycan array binding signal (z-score),Gal(a1-3)Gal,0.351
same,glycan array binding signal (z-score),Gal(a1-3)Gal(b1-3)GlcNAc,-0.102
same,glycan array binding signal (z-score),[4],-1.1
same,glycan array binding signal (z-score),[5],-0.513
same,glycan array binding signal (z-score),Gal(a1-3)Gal(b1-4)Glc,0.301
same,glycan array binding signal (z-score),Gal(a1-3)Gal(b1-4)GlcNAc,-0.113
same,glycan array binding signal (z-score),[6],0.006
same,glycan array binding signal (z-score),[7],-0.047
same,glycan array binding signal (z-score),[8],0.436
same,glycan array binding signal (z-score),Gal(a1-3)GalNAc,-0.288
same,glycan array binding signal (z-score),[9],-0.103
same,glycan array binding signal (z-score),[10],0.315
same,glycan array binding signal (z-score),Gal(a1-4)Gal(b1-4)Glc,-0.732
same,glycan array binding signal (z-score),Gal(a1-4)Gal(b1-4)GlcNAc,-0.345
same,glycan array binding signal (z-score),[11],-0.336
same,glycan array binding signal (z-score),[12],0.399
same,glycan array binding signal (z-score),Gal(a1-4)GlcNAc,0.185
same,glycan array binding signal (z-score),Gal(a1-6)Glc,-0.184
same,glycan array binding signal (z-score),Gal(b1-2)Gal,0.732
same,glycan array binding signal (z-score),Gal(b1-3)Gal,0.202
same,glycan array binding signal (z-score),Gal(b1-3)Gal(b1-4)GlcNAc,-0.549
same,glycan array binding signal (z-score),[13],-0.557
same,glycan array binding signal (z-score),Gal(b1-3)GalNAc,-0.563
same,glycan array binding signal (z-score),[14],-0.134

# Pulled one by one from the entries so far (two):
binder,measurement,setting,value
B1,glycan array binding signal (z-score),Gal(a1-3)Gal,0.351
same,glycan array binding signal (z-score),Gal(b1-3)Gal(b1-4)GlcNAc,-0.549
